Reference: publication PMC8866856
No constants are given. Whether binding was seen depends on the method and setting. In cells and extracts the contact can be indirect. Binding calls can cover weak binding; strength is not graded here.

Amino acid sequences for entries named in this document (tags omitted). A change or cut given only in a name is not applied to a line headed by its entry. Residues count along the entry.
UniProt P38647, residues 47-679: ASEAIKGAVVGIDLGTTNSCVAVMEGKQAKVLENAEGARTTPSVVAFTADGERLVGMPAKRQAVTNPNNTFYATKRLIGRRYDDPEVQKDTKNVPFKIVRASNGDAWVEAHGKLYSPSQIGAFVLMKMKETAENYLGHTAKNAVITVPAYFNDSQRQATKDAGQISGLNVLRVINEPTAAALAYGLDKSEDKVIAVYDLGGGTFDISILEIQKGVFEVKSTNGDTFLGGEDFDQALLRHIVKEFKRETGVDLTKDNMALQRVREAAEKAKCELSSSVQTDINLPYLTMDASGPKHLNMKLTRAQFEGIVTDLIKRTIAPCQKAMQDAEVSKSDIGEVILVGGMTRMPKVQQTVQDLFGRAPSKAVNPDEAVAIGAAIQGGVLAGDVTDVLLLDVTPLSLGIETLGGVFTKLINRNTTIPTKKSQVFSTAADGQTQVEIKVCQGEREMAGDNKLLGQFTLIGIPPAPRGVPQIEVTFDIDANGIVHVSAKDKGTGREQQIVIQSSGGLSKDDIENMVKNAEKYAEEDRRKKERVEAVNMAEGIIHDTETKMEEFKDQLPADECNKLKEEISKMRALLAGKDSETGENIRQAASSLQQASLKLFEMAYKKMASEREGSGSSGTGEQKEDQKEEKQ
UniProt Q6PF93: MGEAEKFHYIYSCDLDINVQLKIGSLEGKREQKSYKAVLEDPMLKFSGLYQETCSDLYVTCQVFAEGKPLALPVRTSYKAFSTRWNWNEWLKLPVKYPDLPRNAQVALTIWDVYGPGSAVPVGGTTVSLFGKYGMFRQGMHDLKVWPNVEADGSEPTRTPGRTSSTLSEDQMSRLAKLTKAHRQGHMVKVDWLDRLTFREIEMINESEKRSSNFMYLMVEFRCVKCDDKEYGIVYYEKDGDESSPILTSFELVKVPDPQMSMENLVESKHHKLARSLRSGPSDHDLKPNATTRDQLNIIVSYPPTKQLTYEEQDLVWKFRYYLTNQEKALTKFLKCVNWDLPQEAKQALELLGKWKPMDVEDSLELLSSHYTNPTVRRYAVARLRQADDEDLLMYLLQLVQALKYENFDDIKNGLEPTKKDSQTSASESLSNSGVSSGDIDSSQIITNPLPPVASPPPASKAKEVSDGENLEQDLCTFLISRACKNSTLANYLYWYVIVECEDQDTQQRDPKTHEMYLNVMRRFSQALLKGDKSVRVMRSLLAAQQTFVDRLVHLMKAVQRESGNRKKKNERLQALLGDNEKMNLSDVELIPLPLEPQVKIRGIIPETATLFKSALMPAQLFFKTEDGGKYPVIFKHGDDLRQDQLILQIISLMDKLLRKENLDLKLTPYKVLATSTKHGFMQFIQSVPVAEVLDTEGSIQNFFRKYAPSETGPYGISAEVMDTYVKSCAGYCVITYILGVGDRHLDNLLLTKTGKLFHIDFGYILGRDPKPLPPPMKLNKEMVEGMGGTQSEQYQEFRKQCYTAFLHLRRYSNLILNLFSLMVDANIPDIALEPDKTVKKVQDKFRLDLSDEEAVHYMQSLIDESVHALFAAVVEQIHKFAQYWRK
UniProt P70227: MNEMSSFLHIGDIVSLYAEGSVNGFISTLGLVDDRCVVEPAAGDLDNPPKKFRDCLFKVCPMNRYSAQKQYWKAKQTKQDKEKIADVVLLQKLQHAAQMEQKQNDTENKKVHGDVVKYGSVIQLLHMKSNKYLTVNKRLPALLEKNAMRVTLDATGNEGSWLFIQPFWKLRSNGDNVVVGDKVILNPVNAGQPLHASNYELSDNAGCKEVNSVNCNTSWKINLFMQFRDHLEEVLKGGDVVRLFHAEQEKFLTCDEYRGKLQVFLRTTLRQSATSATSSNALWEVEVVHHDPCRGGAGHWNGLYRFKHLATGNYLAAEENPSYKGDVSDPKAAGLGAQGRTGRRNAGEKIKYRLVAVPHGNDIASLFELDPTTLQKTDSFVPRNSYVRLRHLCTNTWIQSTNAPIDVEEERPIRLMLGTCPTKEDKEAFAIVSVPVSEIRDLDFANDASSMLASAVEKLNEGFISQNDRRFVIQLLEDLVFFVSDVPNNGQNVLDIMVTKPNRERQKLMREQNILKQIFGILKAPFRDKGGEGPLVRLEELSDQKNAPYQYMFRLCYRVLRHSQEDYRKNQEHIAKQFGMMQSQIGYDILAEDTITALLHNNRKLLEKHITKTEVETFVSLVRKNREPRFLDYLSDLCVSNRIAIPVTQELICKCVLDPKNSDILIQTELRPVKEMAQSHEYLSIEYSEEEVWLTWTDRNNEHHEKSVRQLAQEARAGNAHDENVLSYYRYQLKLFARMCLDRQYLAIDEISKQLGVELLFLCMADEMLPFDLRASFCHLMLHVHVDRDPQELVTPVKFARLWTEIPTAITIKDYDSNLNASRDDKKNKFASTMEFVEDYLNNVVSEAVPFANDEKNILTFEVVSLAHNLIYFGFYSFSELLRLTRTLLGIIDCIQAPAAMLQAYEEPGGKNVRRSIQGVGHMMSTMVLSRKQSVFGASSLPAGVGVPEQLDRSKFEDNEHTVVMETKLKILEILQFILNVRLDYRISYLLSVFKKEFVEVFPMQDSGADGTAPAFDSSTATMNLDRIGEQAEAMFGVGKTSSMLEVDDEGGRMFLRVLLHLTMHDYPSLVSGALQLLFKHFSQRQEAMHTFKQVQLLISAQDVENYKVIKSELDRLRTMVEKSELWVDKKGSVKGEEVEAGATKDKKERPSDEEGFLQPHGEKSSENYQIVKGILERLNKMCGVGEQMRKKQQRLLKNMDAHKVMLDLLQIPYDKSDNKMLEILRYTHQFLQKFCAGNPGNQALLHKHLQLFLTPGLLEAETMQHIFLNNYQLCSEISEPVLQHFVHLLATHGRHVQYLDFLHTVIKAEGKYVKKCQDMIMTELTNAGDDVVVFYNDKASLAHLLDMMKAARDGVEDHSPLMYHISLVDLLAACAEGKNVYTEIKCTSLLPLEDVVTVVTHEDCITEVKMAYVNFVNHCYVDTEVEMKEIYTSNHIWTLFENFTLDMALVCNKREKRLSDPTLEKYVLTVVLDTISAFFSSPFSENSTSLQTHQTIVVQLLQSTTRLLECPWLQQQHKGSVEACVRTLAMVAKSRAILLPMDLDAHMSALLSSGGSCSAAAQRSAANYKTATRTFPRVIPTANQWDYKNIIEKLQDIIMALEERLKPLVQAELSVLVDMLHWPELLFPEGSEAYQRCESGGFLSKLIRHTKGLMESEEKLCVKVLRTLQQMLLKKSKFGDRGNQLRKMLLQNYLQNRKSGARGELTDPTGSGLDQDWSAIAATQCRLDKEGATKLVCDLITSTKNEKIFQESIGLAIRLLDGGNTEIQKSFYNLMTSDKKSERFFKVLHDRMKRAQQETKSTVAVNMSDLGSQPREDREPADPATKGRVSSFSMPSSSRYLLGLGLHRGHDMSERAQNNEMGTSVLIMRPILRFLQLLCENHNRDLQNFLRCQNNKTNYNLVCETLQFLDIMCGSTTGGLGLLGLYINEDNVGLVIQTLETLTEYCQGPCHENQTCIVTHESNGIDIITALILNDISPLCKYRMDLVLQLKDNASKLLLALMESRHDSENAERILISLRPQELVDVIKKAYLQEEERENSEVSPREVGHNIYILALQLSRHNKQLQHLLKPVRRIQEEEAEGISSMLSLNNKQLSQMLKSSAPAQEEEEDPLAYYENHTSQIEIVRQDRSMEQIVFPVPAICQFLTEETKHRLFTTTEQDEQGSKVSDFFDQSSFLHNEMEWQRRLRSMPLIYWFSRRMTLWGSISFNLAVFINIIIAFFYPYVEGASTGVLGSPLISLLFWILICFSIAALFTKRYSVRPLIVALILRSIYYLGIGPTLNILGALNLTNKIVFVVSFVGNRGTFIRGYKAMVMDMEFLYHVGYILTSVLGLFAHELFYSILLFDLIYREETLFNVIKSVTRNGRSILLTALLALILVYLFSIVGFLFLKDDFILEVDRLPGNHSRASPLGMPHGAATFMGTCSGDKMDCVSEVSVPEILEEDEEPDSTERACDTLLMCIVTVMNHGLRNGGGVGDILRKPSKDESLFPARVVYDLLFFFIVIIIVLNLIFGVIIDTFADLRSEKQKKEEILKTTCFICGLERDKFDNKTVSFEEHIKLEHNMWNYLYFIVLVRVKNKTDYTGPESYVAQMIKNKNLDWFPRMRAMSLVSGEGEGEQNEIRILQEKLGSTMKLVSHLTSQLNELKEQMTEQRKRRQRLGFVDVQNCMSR
UniProt Q60932: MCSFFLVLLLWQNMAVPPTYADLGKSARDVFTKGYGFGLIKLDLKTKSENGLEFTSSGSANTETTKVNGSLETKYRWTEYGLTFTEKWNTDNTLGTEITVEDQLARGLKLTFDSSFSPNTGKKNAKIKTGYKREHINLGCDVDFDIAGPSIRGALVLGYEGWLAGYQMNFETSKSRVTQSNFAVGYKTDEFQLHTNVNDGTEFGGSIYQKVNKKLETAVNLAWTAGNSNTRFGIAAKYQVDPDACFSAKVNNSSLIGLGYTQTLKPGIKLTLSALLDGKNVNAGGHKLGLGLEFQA

Tests used:
[1] = target: glucose-regulated protein 75 (Grp75) (mouse (endogenous in Tregs from murine spleens)) (UniProt P38647); assay: co-IP; endogenous proteins; activated wild-type murine Tregs cultured 6 h without IL-2, lysed in RIPA buffer with 1% NP-40; supernatant incubated with antibody to Notch1 or Grp75 (6 ug) or control IgG for 16-18 h at 4°C, then Sepharose G/A plus beads for 3 h; washed with ice-cold PBS; western blot
[2] = target: Notch1 (mouse (endogenous in Tregs from murine spleens)) (UniProt Q01705); assay: as above

## Notch1 (from UniProt Q01705)
[1]
  binding: binds

## Vps34 (from UniProt Q6PF93 1-887)
[2]
  binding: no binding

## glucose-regulated protein 75 (Grp75) (from UniProt P38647 47-679)
[2]
  binding: binds

## Inositol 1,4,5-trisphosphate receptor, type 3 (IP3R3) (from UniProt P70227 1-2670)
[2]
  binding: no binding

## Voltage Dependent Anion Channel (VDAC)1 (from UniProt Q60932)
[1]
  binding: binds
[2]
  binding: binds
